Test results taken from patent publication US20100104509A1, “HUMAN ANTIBODIES THAT BIND CD19 AND USES THEREOF” (Medarex, Inc., priority 2006, published 2010).
No constants are given. Whether binding was seen depends on the method and setting. Some entries that bind do so weakly or less than the wild type.

Biological target: CD19 on B cells of cynomolgus monkeys (cynomolgus monkey)
Assay: FACS staining of cynomolgus monkey blood samples

B1: human monoclonal antibody 21D4 (antibody, V domains shown)
VH: EVQLVQSGAEVKKPGESLKISCKGSGYSFSSSWIGWVRQMPGKGLEWMGIIYPDDSDTRYSPSFQGQVTISADKSIRTAYLQWSSLKASDTAMYYCARHVTMIWGVIIDFWGQGTLVTVSS
VL: AIQLTQSPSSLSASVGDRVTITCRASQGISSALAWYQQKPGKAPKLLIYDASSLESGVPSRFSGSGSGTDFTLTISSLQPEDFATYYCQQFNSYPYTFGQGTKLEIK
binding: binds
